From US20260384765A1, “ANTHRANILATE SYNTHASE MUTANT AND USE THEREOF” (published 2026)
Certain results were filed several times, with different values. This list holds those alone. The source may hold further records. Values that stand side by side differ, and nothing given here explains why; dose, time, organism, isomer or construct need not be as stated for each record.

Tested on: TrpE (S40M/S94N) (anthranilate synthase mutant)
Experiment: Determination of tryptophan inhibition curves, TrpE (S40M/S94N)
Conditions: role: inhibitor; S40M/S94N vs wild type; substrate chorismate 300 μM; pH 9.0
Experimental: Experimental steps: a reaction buffer was prepared to contain 100 mM NH4Cl, 10 mM MgCl2, 20 mM Tris-HCl, and 0.1 mM ethylenediaminetetraacetic acid (EDTA), and the pH was adjusted to 9.0. 50 ml of the buffer was prepared into an 8 g/L tryptophan buffer, and the pH was adjusted to 9.0. The buffers prepared in the previous two steps were mixed in proportion to obtain tryptophan buffers having different concentrations. In a completely black, opaque microplate, 200 μl of tryptophan buffers having different concentrations were added, and the mutant enzyme solution prepared in Example 2 was added to a final concentration of 0.1 μM, followed by incubation at 30 °C for 10 min. […] A fluorescence microplate reader was used to measure the fluorescence value at 400 nm after excitation at 320 nm, with detection performed once every ten seconds. The microplate reader automatically plotted a curve of fluorescence value over time. The concentration of the reaction product anthranilate and the fluorescence value were in a linear relationship when the anthranilate concentration was within 0-50 μM. The initial slope of the curve plotted by the microplate reader when the tryptophan concentration was 0 was defined as enzyme activity=1.0, and the ratio of the slope under different tryptophan concentrations to the slope without feedback inhibition was defined as relative enzyme activity. […]

N[C@@H](Cc1c[nH]c2ccccc12)C(=O)O
increase of inhibition constant Ki for tryptophan compared with the wild type: more than 533 fold and 533 fold
